Measurements reported in the supplement of paper PMC10849652.
This is one part of the list.

The chains behind the UniProt entries cited, without tags or fusion partners. Where a name states a change or a piece, a line headed by the entry shows the natural chain unless it says otherwise.
UniProt O94829: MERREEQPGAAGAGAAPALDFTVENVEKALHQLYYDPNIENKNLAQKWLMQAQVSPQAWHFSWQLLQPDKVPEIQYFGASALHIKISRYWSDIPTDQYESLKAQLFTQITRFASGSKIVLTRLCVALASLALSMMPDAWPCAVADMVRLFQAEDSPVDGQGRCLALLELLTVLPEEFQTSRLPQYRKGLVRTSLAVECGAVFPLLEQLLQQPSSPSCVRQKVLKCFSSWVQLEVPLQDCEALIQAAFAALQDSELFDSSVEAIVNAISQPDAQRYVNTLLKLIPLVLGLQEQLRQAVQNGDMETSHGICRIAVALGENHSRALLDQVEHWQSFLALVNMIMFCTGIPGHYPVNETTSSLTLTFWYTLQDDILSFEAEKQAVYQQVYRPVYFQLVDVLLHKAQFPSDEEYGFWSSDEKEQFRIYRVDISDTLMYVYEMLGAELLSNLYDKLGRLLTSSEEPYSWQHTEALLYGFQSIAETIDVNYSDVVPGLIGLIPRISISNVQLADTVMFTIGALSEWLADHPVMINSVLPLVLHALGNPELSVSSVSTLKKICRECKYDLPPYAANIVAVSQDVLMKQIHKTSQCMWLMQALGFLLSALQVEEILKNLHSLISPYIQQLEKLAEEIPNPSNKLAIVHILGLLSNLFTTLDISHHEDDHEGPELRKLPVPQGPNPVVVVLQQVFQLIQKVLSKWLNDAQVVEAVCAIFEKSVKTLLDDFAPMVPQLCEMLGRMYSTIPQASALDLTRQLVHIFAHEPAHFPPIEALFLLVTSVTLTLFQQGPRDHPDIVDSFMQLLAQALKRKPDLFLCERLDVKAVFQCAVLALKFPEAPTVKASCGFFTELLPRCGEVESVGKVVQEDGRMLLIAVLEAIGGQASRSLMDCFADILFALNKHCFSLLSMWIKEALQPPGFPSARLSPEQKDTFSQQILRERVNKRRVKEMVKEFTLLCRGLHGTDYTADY
UniProt Q8NA54: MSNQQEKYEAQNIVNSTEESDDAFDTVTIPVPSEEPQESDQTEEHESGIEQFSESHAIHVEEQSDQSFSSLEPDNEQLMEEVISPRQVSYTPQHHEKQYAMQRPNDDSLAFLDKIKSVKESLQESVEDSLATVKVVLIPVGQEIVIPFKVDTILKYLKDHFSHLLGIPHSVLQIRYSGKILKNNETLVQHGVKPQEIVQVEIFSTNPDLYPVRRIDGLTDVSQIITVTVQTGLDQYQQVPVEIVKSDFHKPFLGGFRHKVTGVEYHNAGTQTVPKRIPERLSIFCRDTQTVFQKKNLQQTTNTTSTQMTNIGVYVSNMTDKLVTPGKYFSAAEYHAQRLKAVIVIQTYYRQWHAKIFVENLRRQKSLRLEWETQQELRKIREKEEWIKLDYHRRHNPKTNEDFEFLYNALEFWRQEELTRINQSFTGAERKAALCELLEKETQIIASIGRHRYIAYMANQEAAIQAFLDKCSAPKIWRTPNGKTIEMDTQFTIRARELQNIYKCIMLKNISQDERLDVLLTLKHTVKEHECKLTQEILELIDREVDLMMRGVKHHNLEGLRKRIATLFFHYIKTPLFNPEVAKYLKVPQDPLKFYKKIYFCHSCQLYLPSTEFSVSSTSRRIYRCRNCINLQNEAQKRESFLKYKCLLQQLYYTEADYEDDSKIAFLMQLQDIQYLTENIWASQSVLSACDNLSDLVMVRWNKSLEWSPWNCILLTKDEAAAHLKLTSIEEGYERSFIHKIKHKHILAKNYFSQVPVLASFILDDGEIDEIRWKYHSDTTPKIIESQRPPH
UniProt Q7L273: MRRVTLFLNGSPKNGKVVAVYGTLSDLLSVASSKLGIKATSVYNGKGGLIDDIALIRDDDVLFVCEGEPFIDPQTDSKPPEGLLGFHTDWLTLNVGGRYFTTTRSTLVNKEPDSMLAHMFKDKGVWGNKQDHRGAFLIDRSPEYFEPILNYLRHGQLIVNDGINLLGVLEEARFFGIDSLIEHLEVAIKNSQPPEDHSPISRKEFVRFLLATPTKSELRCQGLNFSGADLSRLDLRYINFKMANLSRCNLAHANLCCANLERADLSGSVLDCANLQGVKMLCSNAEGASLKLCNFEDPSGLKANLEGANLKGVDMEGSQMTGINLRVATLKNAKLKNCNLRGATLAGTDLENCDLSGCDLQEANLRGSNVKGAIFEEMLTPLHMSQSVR
UniProt P18084: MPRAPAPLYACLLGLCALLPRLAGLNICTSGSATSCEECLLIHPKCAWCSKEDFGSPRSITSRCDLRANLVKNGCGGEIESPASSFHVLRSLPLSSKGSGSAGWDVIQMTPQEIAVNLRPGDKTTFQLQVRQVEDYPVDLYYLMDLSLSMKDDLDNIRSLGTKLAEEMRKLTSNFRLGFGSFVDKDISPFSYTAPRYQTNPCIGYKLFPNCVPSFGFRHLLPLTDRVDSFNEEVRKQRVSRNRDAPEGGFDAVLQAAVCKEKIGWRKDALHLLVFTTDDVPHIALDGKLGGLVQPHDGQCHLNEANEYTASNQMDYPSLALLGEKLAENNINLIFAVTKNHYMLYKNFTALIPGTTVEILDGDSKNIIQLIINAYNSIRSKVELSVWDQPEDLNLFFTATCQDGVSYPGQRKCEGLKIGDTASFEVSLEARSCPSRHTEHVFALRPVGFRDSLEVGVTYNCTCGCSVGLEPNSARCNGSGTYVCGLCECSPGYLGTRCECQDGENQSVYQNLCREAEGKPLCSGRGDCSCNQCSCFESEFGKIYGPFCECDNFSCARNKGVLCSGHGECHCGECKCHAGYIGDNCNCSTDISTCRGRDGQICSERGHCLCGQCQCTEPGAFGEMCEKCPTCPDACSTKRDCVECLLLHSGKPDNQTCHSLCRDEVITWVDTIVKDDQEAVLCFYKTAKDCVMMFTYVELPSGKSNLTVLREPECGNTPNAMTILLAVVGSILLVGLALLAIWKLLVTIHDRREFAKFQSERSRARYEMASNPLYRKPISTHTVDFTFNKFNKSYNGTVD
UniProt P38570: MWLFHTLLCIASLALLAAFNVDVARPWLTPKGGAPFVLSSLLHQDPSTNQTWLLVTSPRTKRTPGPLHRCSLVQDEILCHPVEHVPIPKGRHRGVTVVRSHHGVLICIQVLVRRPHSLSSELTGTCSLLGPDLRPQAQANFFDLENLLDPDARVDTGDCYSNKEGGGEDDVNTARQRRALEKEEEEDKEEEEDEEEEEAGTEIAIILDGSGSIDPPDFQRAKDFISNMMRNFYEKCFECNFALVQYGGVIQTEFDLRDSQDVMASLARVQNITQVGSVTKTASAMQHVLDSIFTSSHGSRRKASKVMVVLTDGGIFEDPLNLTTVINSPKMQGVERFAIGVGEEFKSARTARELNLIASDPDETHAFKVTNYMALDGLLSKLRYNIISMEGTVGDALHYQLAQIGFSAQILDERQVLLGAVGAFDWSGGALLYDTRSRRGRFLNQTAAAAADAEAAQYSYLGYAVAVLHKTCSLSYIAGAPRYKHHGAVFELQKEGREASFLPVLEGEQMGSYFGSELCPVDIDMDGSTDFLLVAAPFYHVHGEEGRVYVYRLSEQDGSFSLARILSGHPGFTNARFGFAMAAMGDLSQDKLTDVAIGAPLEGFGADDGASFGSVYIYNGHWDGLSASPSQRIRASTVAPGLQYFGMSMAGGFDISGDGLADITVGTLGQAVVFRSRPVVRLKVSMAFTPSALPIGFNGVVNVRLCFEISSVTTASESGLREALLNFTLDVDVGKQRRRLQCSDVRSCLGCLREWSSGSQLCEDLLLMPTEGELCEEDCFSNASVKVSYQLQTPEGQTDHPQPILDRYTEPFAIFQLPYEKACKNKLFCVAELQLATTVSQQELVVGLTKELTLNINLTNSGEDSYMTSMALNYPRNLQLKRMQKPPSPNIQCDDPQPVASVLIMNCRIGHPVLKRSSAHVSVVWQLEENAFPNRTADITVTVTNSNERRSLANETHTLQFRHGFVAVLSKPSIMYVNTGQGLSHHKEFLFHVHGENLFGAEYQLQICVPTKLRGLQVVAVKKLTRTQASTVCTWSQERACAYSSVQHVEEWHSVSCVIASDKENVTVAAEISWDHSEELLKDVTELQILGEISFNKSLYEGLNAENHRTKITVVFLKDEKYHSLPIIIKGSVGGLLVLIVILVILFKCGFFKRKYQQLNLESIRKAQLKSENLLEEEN
UniProt Q96HW7, whole entry, looked up: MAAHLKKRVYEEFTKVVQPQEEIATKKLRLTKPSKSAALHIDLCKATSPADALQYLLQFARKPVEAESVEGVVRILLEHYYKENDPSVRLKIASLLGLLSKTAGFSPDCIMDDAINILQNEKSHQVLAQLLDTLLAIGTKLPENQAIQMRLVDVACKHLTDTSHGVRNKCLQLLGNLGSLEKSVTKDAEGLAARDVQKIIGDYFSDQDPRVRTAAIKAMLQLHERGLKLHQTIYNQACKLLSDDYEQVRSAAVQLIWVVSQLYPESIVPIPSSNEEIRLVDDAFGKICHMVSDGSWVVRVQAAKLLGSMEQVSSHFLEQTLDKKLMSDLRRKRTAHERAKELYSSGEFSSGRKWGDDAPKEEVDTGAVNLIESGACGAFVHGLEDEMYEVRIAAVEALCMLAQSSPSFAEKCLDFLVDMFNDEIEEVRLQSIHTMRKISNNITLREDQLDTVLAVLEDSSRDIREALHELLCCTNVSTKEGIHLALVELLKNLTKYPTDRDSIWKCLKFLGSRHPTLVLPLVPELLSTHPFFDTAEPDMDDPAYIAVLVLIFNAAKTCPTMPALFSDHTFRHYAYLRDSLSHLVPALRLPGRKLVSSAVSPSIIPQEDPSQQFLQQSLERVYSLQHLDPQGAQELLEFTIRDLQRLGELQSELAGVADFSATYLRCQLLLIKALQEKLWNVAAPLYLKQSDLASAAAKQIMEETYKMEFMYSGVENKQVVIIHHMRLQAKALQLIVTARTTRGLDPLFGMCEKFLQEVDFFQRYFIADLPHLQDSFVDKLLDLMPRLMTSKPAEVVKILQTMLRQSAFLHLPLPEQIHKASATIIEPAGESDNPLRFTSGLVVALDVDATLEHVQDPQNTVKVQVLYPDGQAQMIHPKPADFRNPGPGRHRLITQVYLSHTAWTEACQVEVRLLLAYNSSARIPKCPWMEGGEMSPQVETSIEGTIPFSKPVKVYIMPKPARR
UniProt Q9P0J7: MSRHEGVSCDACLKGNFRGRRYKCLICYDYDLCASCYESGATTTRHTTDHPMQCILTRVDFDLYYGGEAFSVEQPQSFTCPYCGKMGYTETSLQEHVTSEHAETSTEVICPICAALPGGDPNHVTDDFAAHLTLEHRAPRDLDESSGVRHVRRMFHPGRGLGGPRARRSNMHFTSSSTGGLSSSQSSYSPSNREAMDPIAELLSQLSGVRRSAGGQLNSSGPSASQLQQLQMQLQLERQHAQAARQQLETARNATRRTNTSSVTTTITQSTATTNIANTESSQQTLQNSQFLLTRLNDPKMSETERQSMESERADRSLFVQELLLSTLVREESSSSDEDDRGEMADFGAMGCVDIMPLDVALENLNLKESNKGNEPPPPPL
UniProt O95373, whole entry, looked up: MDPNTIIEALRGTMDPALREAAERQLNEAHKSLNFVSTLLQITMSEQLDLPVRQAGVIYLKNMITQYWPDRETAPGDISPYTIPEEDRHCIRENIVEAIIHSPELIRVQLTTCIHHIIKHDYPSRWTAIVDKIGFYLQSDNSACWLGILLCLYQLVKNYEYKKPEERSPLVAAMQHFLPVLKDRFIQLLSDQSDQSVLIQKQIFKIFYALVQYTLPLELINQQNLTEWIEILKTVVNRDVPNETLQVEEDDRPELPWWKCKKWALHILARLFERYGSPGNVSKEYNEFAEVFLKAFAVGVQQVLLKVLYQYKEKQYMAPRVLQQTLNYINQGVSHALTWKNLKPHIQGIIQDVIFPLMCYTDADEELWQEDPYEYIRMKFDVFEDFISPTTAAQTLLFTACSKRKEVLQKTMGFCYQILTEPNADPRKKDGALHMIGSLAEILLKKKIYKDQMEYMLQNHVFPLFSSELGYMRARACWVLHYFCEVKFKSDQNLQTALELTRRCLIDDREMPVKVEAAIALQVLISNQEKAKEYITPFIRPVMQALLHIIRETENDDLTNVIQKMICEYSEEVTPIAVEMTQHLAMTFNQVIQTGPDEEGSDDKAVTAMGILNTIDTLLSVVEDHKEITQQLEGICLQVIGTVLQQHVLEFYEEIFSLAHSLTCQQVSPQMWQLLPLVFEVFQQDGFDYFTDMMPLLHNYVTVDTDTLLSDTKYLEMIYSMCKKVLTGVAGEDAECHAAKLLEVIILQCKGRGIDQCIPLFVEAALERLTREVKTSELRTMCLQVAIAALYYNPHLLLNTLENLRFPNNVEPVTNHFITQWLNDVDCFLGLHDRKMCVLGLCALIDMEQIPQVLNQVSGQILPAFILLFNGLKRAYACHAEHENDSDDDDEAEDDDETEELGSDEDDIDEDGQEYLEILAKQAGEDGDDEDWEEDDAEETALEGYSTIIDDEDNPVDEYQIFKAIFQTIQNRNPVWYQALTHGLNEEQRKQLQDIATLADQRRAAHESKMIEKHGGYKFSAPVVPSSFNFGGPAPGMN

Tests used:
Assay in all cases: log2 fold change, soluble protein after heating vs DMSO (PISA); higher = thermal stabilisation; K562 lysate, 10 uM; active = over 0.2 and 3.5 SD of the protein, either way, in both replicates (recomputed)
[1] = compound: C1=CC=C(C=C1)[C@H](COC2=CC3=C(C=C2)NC(=O)N3)NC(=O)C4=CC=CN(C4=O)CC5=CC(=C(C=C5)F)F
Procedure, shortened: (§1)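 K562 pellets were dounce-homogenised in PBS pH 7.4 containing 1 mM MgCl2, and the crude extract, at 1 mg/mL protein, was exposed to 10 μM compound for 30 min. Aliquots were heated for 3 min across 48°C-58°C, pooled, brought to 0.5% NP-40 at 4°C and spun at 21,000xg for 90 min, with the supernatant taken as soluble protein. TMTpro 16plex LC-MS/MS with equalised channel sums quantified that protein. Values are log-two fold changes in thermal stability relative to solvent controls, taken from duplicates.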

[2] = compound: CC1=C(SC2=C1C(=N[C@H](C3=NN=C(N32)C)CC(=O)N)C4=CC=C(C=C4)Cl)C
Procedure, shortened: as §1

[3] = compound: CC1=C2C(=CC=C1)N=C(N(C2=O)C3=CC=CC=C3C)CN4C=NC5=C(N=CN=C54)N
Procedure, shortened: as §1

[4] = compound: Cc1sc2c(c1C)C(c1ccc(Cl)cc1)=N[C@@H](CC(=O)OC(C)(C)C)c1nnc(C)n1-2
Procedure, shortened: as §1

[5] = compound: c1ccc([C@@H]2C[C@H]2NC2CCNCC2)cc1
Procedure, shortened: as §1

Measured: log2 fold change

KARS1 (UniProt Q15046)
inactive: [1] 0.005 | [2] 0.019 | [3] 0.002 | [4] 0.045 | [5] 0.045

ITIH2 (UniProt P19823)
inactive: [1] 0.018 | [2] 0.009 | [3] 0.012 | [5] 0.01

IRF3 (UniProt Q14653)
inactive: [1] 0.036 | [2] -0.011 | [3] 0.005 | [4] 0.004 | [5] 0.052

INTS9 (UniProt Q9NV88)
inactive: [1] 0.004 | [2] -0.009 | [3] -0.05 | [4] -0.01 | [5] 0.005

ITGB1 (UniProt P05556)
inactive: [1] 0.026 | [2] -0.001 | [3] -0.011 | [4] -0.048 | [5] 0.019

ISOC1 (UniProt Q96CN7)
inactive: [1] -0.025 | [2] 0.024 | [3] -0.042 | [4] -0.009 | [5] 0.006

JAK3 (UniProt P52333)
inactive: [1] 0.031 | [2] -0.051 | [3] -0.129 | [5] 0.254

JPT2 isoform 3 (UniProt Q9H910)
inactive: [1] 0.014 | [2] 0.002 | [3] -0.025 | [4] 0.009 | [5] -0.003

IPO13 (UniProt O94829)
inactive: [1] -0.018 | [2] -0.002 | [3] 0.03 | [4] 0.022 | [5] -0.021

IRAK4 (UniProt Q9NWZ3)
inactive: [1] -0.02 | [2] -0.014 | [3] 0.022 | [4] -0.08 | [5] -0.024

IPO4 isoform 2 (UniProt Q8TEX9)
inactive: [1] 0.018 | [2] 0.017 | [3] 0.008 | [4] -0.002 | [5] -0.029

IQUB (UniProt Q8NA54)
inactive: [1] 0.137 | [2] 0.155 | [3] -0.222 | [5] 0.042

ITPKC (UniProt Q96DU7)
inactive: [1] -0.085 | [2] -0.027 | [3] -0.013 | [4] -0.018 | [5] -0.139

KCTD9 (UniProt Q7L273)
inactive: [1] 0.03 | [2] -0.028 | [3] 0 | [4] -0.083 | [5] -0.017

JMJD6 isoform 3 (UniProt Q6NYC1)
inactive: [1] 0.043 | [2] -0.015 | [3] -0.032 | [4] 0.012 | [5] 0.028

IQGAP3 (UniProt Q86VI3)
inactive: [1] -0.011 | [2] 0.038 | [3] -0.208 | [4] -0.03 | [5] 0.099

INTS14 (UniProt Q96SY0)
inactive: [1] 0.067 | [2] 0.034 | [3] -0.038 | [4] 0.007 | [5] 0.009

ITGB5 (UniProt P18084)
inactive: [1] 0.018 | [2] -0.051 | [3] -0.038 | [4] 0.007 | [5] 0.002

ITGAE (UniProt P38570)
inactive: [1] -0.016 | [2] 0.187 | [3] 0.011 | [5] -0.237

INTS4 (UniProt Q96HW7)
inactive: [1] 0.024 | [2] -0.028 | [3] 0.105 | [4] -0.022 | [5] 0.011

KCMF1 (UniProt Q9P0J7)
inactive: [1] 0.055 | [2] 0.008 | [3] 0.025 | [4] -0.009 | [5] -0.052

ITGAV (UniProt P06756)
inactive: [1] 0.041 | [2] -0.009 | [3] 0.013 | [4] -0.069 | [5] -0.009

IPO7 (UniProt O95373)
inactive: [1] -0.007 | [2] 0.032 | [3] 0.009 | [4] -0.007 | [5] -0.062

2 entries drawn at random from the list so far, as already listed:
INTS4 (UniProt Q96HW7)
inactive: [1] 0.024 | [2] -0.028 | [3] 0.105 | [4] -0.022 | [5] 0.011

KCMF1 (UniProt Q9P0J7)
inactive: [1] 0.055 | [2] 0.008 | [3] 0.025 | [4] -0.009 | [5] -0.052

Continued:

INTU (UniProt Q9ULD6)
inactive: [3] 0.085

ITGB1BP2 (UniProt Q9UKP3)
inactive: [3] 0.116 | [4] 0.083 | [5] -0.029

KCNN4 (UniProt O15554)
inactive: [5] 0.031

KANK2 isoform 2 (UniProt Q63ZY3)
inactive: [3] 0.267 | [4] -0.266 | [5] -0.092

ITPRID2 (UniProt P28290)
inactive: [1] -0.156 | [2] 0.077 | [5] 0.089

KCTD7 (UniProt Q96MP8)
inactive: [3] -0.069 | [4] -0.159

KAT2A (UniProt Q92830)
inactive: [4] 0.105 | [5] -0.011
